Source: patent US20080139545A1, “FORMULATION TO TREAT EAR INFECTION” (priority 2006, published 2008)
At least one compound was matched to its structure with a doubt left.

Test: conventional treatments of the same patients before NAC (case histories)
Format: in vivo, human
Excerpt: They developed vertigo and bilateral otalgia in 1997, and presented to our practice. Given their prior history, they underwent an extensive workup from the outset. […] They underwent right-sided T tube placement for chronic Eustachian tube dysfunction in October 1997, with marked improvement of their pressure and fullness. However, they developed intermittent otorrhea, for which they received topical Tobradex. In November, the tube plugged completely, and they underwent tube replacement. Findings were notable for thick mucus filling the middle ear space. […] They underwent a right sided mastoidectomy with tube exchange in December 1997, with intraoperative findings notable for an inflamed mastoid cavity with several areas of cholesterol granuloma, as well as complete aditus blockade.
They continued to have thick, “taupe”-colored otorrhea after surgery. Considering their failure to respond to therapy, the differential was widened. Their evaluations for immunodeficiency and autoimmune pathology were negative. They underwent multiple TT placements and exchanges, as well as a negative culture and a wide laser tympanotomy in June 1998. The tympanotomy afforded them a brief hiatus from drainage from July through August. […] They also required office debridements every week or alternate week until they underwent a revision tympanomastoidectomy in October 1998. Intraoperative findings were notable for a clear mastoid, but a middle ear full of thick mucopurulence and edematous mucosa. The KTP laser was used to widen the tympanotomy and to ablate the middle ear mucosa to the Eustachian tube. Intraoperative cultures returned negative. Their course improved considerably, with only mild intermittent infections through July 1999. However, they were then diagnosed with breast cancer, which was treated with a modified radical mastectomy and adjuvant chemoradiation.
As they were completing their chemotherapy, they redeveloped the same otorrhea, which was treated with continuous, suppressive Floxin drops as well as frequent office debridements. […]

C[C@H]1COc2c(N3CCN(C)CC3)c(F)cc3c(=O)c(C(=O)O)cn1c23 [Levaquin, (−)-(S)-9-fluoro-2,3-dihydro-3-methyl-10-(4-methyl-1-piperazinyl)-7-oxo-7H-pyrido[1,2,3-de]-1,4-benzoxazine-6-carboxylic acid hemihydrate]
response of otorrhea to conventional treatment (patient four (Example 2), 2004-2005, topical or oral as stated): continued to drain through November
response of otorrhea/effusion to conventional treatment (patient three (Example 3), 2005, topical or oral as stated): continued to drain until September
response of otorrhea to conventional treatment (patient two (Example 1), 1997-2005, topical or oral as stated): minor improvement
